From article PMC3358304
No constants are given. Whether binding was seen depends on the method and setting. Binding seen in cells or lysates may run through a third protein. Some entries that bind do so weakly or less than the wild type.

By UniProt entry, the sequences of proteins in these tests, tags left out. Where a name states a change or a piece, a line headed by the entry shows the natural chain unless it says otherwise.
UniProt P31749: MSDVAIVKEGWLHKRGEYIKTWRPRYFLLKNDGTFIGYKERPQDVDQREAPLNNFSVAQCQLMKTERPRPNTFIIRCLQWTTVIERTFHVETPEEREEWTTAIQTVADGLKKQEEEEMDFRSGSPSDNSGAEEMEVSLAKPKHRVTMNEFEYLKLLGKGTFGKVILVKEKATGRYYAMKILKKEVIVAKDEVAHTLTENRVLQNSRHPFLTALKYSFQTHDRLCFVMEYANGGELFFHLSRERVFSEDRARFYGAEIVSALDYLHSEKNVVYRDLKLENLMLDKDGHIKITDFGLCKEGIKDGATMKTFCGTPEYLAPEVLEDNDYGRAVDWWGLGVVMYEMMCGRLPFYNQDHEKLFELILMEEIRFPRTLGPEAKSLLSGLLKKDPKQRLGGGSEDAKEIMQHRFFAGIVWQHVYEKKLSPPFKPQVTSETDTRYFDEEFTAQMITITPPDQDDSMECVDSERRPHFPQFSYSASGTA

B1: phosphoinositide-dependent kinase 1 (PDK1), O15530 1-556 (enzyme)
chain: MARTTSQLYDAVPIQSSVVLCSCPSPSMVRTQTESSTPPGIPGGSRQGPAMDGTAAEPRPGAGSLQHAQPPPQPRKKRPEDFKFGKILGEGSFSTVVLARELATSREYAIKILEKRHIIKENKVPYVTRERDVMSRLDHPFFVKLYFTFQDDEKLYFGLSYAKNGELLKYIRKIGSFDETCTRFYTAEIVSALEYLHGKGIIHRDLKPENILLNEDMHIQITDFGTAKVLSPESKQARANSFVGTAQYVSPELLTEKSACKSSDLWALGCIIYQLVAGLPPFRAGNEYLIFQKIIKLEYDFPEKFFPKARDLVEKLLVLDATKRLGCEEMEGYGPLKAHPFFESVTWENLHQQTPPKLTAYLPAMSEDDEDCYGNYDNLLSQFGCMQVSSSSSSHSLSASDTGLPQRSGSNIEQYIHDLDSNSFELDLQFSEDEKRLLLEKQAGGNPWHQFVENNLILKMGPVDKRKGLFARRRQLLLTEGPHLYYVDPVNKVLKGEIPWSQELRPEAKNFKTFFVHTPNRTYYLMDPSGNAHKWCRKIQEVWRQRYQSHPDAAVQ
B2: phosphoinositide-dependent kinase 1 (PDK1) (enzyme, UniProt O15530 1-556)
chain: B1 chain

How the values were obtained:
Experiment in all cases: co-IP; MCF-7 cells transfected with Flag-HA-Akt or its mutants and treated by IGF-1; Akt immunoprecipitated with anti-Flag agarose, precipitate probed against Akt and PDK1
[1] = biological target: wild-type Akt (human AKT1, Flag-HA-AKT1) (human), P31749; details: remark: other sources report otherwise
[2] = biological target: Akt T305A mutant (Flag-HA-AKT1 T305A) (human) (UniProt P31749)
[3] = biological target: Akt T312A mutant (Flag-HA-AKT1 T312A) (human) (UniProt P31749)

Binder	binding [1]	binding [2]	binding [3]
B1	binds		
B2		binds	binds
